We go through one substance from paper PMC5154475, “Dual Therapeutic Action of a Neutralizing Anti-FGF2 Aptamer in Bone Disease and Bone Cancer Pain” (Molecular Therapy, 2016).

Sequences of proteins named here, by UniProt entry; tags and fusion partners are left off. Residues count along the entry.
UniProt P22607, residues 23-375: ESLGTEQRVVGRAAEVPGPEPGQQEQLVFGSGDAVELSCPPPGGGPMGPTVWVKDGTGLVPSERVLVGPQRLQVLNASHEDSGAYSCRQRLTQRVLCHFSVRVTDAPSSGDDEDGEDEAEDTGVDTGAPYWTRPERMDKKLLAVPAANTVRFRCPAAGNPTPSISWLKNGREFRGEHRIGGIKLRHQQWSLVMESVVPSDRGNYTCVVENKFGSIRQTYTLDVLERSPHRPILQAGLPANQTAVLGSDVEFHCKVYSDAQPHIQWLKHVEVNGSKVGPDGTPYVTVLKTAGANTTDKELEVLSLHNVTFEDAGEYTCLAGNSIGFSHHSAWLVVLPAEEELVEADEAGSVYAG

No constants are given. Whether binding was seen depends on the method and setting. Binding can be weak; no strength is given. For some assays here: Sequences can lack the tags named with a protein.

In assay [1] the target is human FGFR3(IIIc)-Fc (human) (UniProt P22607). As to the kind of experiment: SPR; Biacore 2000; FGFR/Fc fusion proteins immobilised onto a CM5 sensor chip via prebound protein A (1,000 RUs); FGF2 injected with or without the RNA aptamer APT-F2; for FGFR1: receptor 100 nmol/l, FGF2 100 nmol/l, heparin 100 nmol/l, APT-F2 150 nmol/l; both purified. For orientation: Surface plasmon resonance follows binding to a sensor surface in real time, without labels.

Another assay deals with T1, human FGFR4-Fc (human) (UniProt P22455).
T1 sequence: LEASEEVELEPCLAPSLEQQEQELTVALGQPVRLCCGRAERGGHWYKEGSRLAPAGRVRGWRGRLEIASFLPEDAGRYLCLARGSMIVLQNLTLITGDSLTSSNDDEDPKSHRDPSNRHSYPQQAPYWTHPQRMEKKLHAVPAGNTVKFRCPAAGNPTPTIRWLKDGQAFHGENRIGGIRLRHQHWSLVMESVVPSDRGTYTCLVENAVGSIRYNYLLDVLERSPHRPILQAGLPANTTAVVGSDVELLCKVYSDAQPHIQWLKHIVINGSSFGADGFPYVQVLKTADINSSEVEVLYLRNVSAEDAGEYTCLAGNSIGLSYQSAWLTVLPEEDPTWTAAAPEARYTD
Described as above.

For “recombinant human FGF2 (from UniProt P09038-2) (ligand)”, the binding entry (in assay [1]; with human FGFR4-Fc (human)) was “binds” throughout.
